Test results: PubChem BioAssay AID328 (DTP/NCI, 2004)
The list shows only some results of the screen, not a fair sample: it gathers tests that were run many times, whatever their T/C, doses with no T/C, and many T/C values between a quarter and a half above the control. Further doses and runs are listed elsewhere. T/C gives the treated animals as a percentage of the vehicle group. Some doses have a count of surviving animals in place of a T/C: the source files T/C as zero there, which appears to mark a toxic dose or a test without result, not a measured value. Some doses without a T/C left all or most animals alive at the check, yet need not have been tolerated: survival well below the control is almost never listed, so the zero probably covers shortened survival too. Survivors were counted at the toxicity check, usually on the fifth day, unless a day is given; later deaths do not show. Schedules are NCI's codes, taken here to give the interval after Q, in days (D) or hours (H), and the number of doses after X. For survival time, this PubChem deposit counts one and a half times the control or more as active, and values a quarter to a half above the control carry no call in these data; other NCI protocols may use other cut-offs. Some doses were run more than once; the results are listed from low to high. Some T/C values carry the count of animals alive at the toxicity check (mostly the fifth day); where none is given, no animal had died by that day.

System: BDF1 mice, P388 leukemia ip, median survival T/C
Assay: NCI In Vivo Anticancer Drug Screen. Data for tumor model P388 Leukemia (intraperitoneal) in B6D2F1 (BDF1) mice
Conditions: T/C endpoint: median survival time, higher T/C = longer survival
How it was run: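 Transplantable tumour in mice; compound vs vehicle dosing; survival scored; ratio of treated to control reported.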

[1] = dose: 100.0 mg/kg/injection, schedule: Q01DX009 (ip), vehicle: saline with Tween-80
[2] = dose: 200.0 mg/kg/injection, schedule: Q01DX009 (ip), vehicle: saline with Tween-80

S=c1[nH]c2ccccc2s1
survivor count (dose: 100.0 mg/kg/injection, schedule: Q04DX003 (ip), vehicle: Klucel (hydroxypropylcellulose) (HPC)): 6 of 6

O=C(NC1=NN(c2ccccc2)C(=O)C1)c1ccccc1
survivor count (dose: 75.0 mg/kg/injection, schedule: Q01DX009 (ip), vehicle: saline with Tween-80): 6 of 6

C[C@]1(O)CC[C@H]2[C@@H]3CCC4=CC(=O)CCC4=C3C=C[C@@]21C
survivor count (dose: 50.0 mg/kg/injection, schedule: Q01DX009 (ip), vehicle: Klucel (hydroxypropylcellulose) (HPC)): 6 of 6 | survivor count (dose: 400.0 mg/kg/injection, schedule: Q04DX003 (ip), vehicle: Klucel (hydroxypropylcellulose) (HPC)): 1 of 6

CCC1CC2CC(c3cc4c(cc3OC)N(C)C3C(O)(C(=O)OC)C(OC(C)=O)C5(CC)C=CCN6CCC43C65)c3[nH]c4ccccc4c3CCN(C1)C2 (configuration not stated)
T/C (dose: 0.06 mg/kg/injection, schedule: Q01DX009 (ip), vehicle: water): 127 % of control | T/C (dose: 0.12 mg/kg/injection, schedule: Q01DX009 (ip), vehicle: water): 131 % of control | T/C (dose: 1.0 mg/kg/injection, schedule: Q04DX003 (ip), vehicle: water): 131 % of control | T/C (dose: 4.0 mg/kg/injection, schedule: Q04DX003 (ip), vehicle: water): 140 % of control

COC(OC)c1[nH]c(=O)[nH]c(=O)c1F.[Hg]
survivor count (dose: 100.0 mg/kg/injection, schedule: Q04DX003 (ip), vehicle: saline): 0 of 6 | survivor count (dose: 200.0 mg/kg/injection, schedule: Q04DX003 (ip), vehicle: saline): 0 of 6 | survivor count (dose: 400.0 mg/kg/injection, schedule: Q04DX003 (ip), vehicle: saline): 0 of 6

C[n+]1c(/C=C\C=C\N2CCCCC2)sc2ccccc21
survivor count (dose: 1.25 mg/kg/injection, schedule: Q01DX009 (ip), vehicle: Klucel (hydroxypropylcellulose) (HPC)): 0 of 6 | survivor count (dose: 2.5 mg/kg/injection, schedule: Q01DX009 (ip), vehicle: Klucel (hydroxypropylcellulose) (HPC)): 0 of 6 | survivor count (dose: 5.0 mg/kg/injection, schedule: Q01DX009 (ip), vehicle: Klucel (hydroxypropylcellulose) (HPC)): 0 of 6

COC1/C=C/OC2(C)Oc3c(C)c(O)c4c(O)c(c(/C=N/N5CCN(Cc6ccccc6)CC5)c(O)c4c3C2=O)NC(=O)C(C)=C/C=C/C(C)C(O)C(C)C(O)C(C)C(OC(C)=O)C1C (configuration not stated)
survivor count (dose: 100.0 mg/kg/injection, schedule: Q01DX009 (ip), vehicle: saline): 5 of 6

COc1ccc(NC(=O)Oc2ccc3c(C)cc(=O)oc3c2)c(OC)c1
T/C [1]: 145 % of control

c1ccc(NNc2c3ccccc3nc3ccccc23)cc1
survivor count [2]: 3 of 6

CCOC(=O)c1c(N)[nH]c(SSc2[nH]c(N)c(C(=O)OCC)c2C(=O)OCC)c1C(=O)OCC
survivor count [1]: 3 of 6 | T/C [2]: 131 % of control [5 of 6 alive] | survivor count (dose: 400.0 mg/kg/injection, schedule: Q01DX009 (ip), vehicle: saline with Tween-80): 2 of 6

O=COC1CC2CC1C1CCCC21 (configuration not stated)
survivor count [2]: 4 of 6

CCN(CC)CCNC1=CC(=S)NC(C)(C)C1
T/C [1]: 144 % of control

NC(=O)c1nc(C(F)(F)F)[nH]c1C(N)=O
survivor count (dose: 400.0 mg/kg/injection, schedule: Q01DX009 (ip), vehicle: water): 0 of 6 | survivor count (dose: 500.0 mg/kg/injection, schedule: Q01DX009 (ip), vehicle: water): 3 of 6

CCC(NC(N)=O)C(CC)NC(N)=O (configuration not stated)
T/C [1]: 137 % of control | survivor count [1]: 2 of 6 | survivor count [2]: 4 of 6

CNC(=N)c1ccc(NC(=N)c2ccc(NC(=N)c3ccc(NC(=O)Nc4ccc(C(=N)NC)cc4)cc3)cc2)cc1
T/C (dose: 0.85 mg/kg/injection, schedule: Q01DX009 (ip), vehicle: saline): 130 % of control | T/C (dose: 1.3 mg/kg/injection, schedule: Q01DX009 (ip), vehicle: saline): 130 % of control | T/C (dose: 1.6 mg/kg/injection, schedule: Q04DX003 (ip), vehicle: saline): 127 % of control | T/C (dose: 2.0 mg/kg/injection, schedule: Q01DX009 (ip), vehicle: saline): 137 and 138 % of control | T/C (dose: 2.4 mg/kg/injection, schedule: Q04DX003 (ip), vehicle: saline): 131 % of control | T/C (dose: 3.0 mg/kg/injection, schedule: Q01DX009 (ip), vehicle: saline): 133 % of control [5 of 6 alive] | T/C (dose: 8.0 mg/kg/injection, schedule: Q04DX003 (ip), vehicle: saline): 145 % of control | T/C (dose: 12.0 mg/kg/injection, schedule: Q04DX003 (ip), vehicle: saline): 145 % of control | survivor count (dose: 25.0 mg/kg/injection, schedule: Q01DX009 (ip), vehicle: saline): 5 of 6 | survivor count (dose: 37.0 mg/kg/injection, schedule: Q04DX003 (ip), vehicle: saline): 0 of 6
